Key:
MV4-11 (Leukemia) = test: WST-1 anticancer cell proliferation assay, MV4-11; type: cell-based; details: Homo sapiens, Table 4, read-out: Acute Myeloid Leukemia cell lines MV4-11 IC50
Protocol: (§1) Bioactivity of the above-described compounds has been verified by an anticancer cell proliferation assay using the WST-1 (4-[3-(4-iodophenyl)-2-(4-nitrophenyl)-2H-5-tetrazolio]-1, 3-benzene disulfonate) colorimetric assay by Roche Life Sciences®. Anticancer activity was tested against several standard cancer cell lines including brain, breast, Kaposi sarcoma, leukemia, lung, melanoma, tenosynovial giant cell tumor, ovarian, pancreatic, colon and prostate cancer. Cells were trypsinized and plated into 96 well plates in 50 μl of media and incubated overnight. The next day approximately 18 hours after plating, 50 μl of media containing the required flavonoid-based pharmaceutical composition was added per well. Cells were plated at a density so that 72 hours post drug addition, the cells will be in log phase (500)-2000 cells/well). The compounds and extracts were solubilized in Dimethyl sulfoxide (DMSO). The cells are allowed to proliferate for 72 hours 37° C. in humidified atmosphere of 5% CO2. The experiment is terminated using WST-1 (Roche®) 10 μl per well and absorbance is read at 450 nm %690 nm. The effect of drugs on growth is assessed as percent of cell viability. The IC50 values were determined from the extract dose versus control growth curves using Graphpad Prism® software. All experiments were carried out in duplicate and the mean results determined.

[1] = tested on: THP-1 acute myeloid leukemia cell line; test: WST-1 anticancer cell proliferation assay, THP-1; type: cell-based; details: Homo sapiens, Table 4, read-out: Acute Myeloid Leukemia cell lines THP-1 IC50
Protocol: as §1, with “Anticancer” for “Bioactivity of the above-described compounds has been verified by an anticancer cell proliferation assay using the WST-1 (4-[3-(4-iodophenyl)-2-(4-nitrophenyl)-2H-5-tetrazolio]-1, 3-benzene disulfonate) colorimetric assay by Roche Life Sciences®. Anticancer”

In the case of `CO[C@@H]1[C@H](N(C)C(=O)c2ccccc2)C[C@H]2O[C@]1(C)n1c3ccccc3c3c4c(c5c6ccccc6n2c5c31)C(=O)NC4` [Midostaurin, reference compound], the IC50 (MV4-11 (Leukemia)) is reported as 8 nM and the IC50 [1] is reported as over 100000 nM.

— patent US20180353462A1, “[…] AGENTS […] FLAVONOID DERIVATIVES TARGETING KINASES, SIRTUINS AND ONCOGENIC AGENTS FOR THE TREATMENT OF CANCERS” (priority 2015, published 2018)
